From paper PMC12040169 (PLOS Biology, 2025) come the findings set out here.

Some of the results follow.

The test deals with T1, CTL2-GFP (C. trachomatis L2/434/Bu, GFP-expressing).
T1 construct: L2/434/Bu, GFP-expressing
Set-up: species or system HeLa; Intracellular C. trachomatis growth in HeLa cells, bulk GFP fluorescence relative to DMSO. The conditions noted are these: bulk GFP, single well; 28.5 h, 10 µM; inhibitor.
Take `O=C(O)c1csc(-c2ccc(Cl)cc2Cl)n1` [CBK067777]: the “% of control remaining” value is reported as 128.432%.

Take `Cc1nccn1Cc1ccccc1C(=O)NCCn1ccnc1` [CBK281580]: the “% of control remaining” value stood at 133.47%.

For the compound `Cc1cc2c(o1)c1cnn(CC(=O)N3CCCCC3)c(=O)c1n2C` [CBK284217], the “% of control remaining” value came out at 140.892%.

For the compound `O=C1CCC(=O)N1CCOc1nccnc1N1CCN(Cc2ccc(Cl)c(Cl)c2)CC1` [CBK084287], the “% of control remaining” value is 112.683%.

As for `Cc1noc2nc(C3CCN(C(=O)C(C)C)CC3)cc(C(F)F)c12` [CBK285305], the “% of control remaining” value is on record as 134.178%.

Take `CC1(OCCN2CCOCC2)SC(NC2CC3CCC2C3)=NC1=O` (centres unmarked) [CBK116313]: the “% of control remaining” value stood at 141.082%.

For `CN1CCC(N[C@H]2C[C@@H](Cc3cc(CCO)on3)C2(C)C)CC1` [CBK289253], the “% of control remaining” value worked out at 153.546%.

With `CCOCc1ccc(C(=O)N2CCNC(=O)C2Cc2ccc(-c3cccs3)cc2)cc1` (centres unmarked) [CBK285811], the “% of control remaining” value came to 94.0205%.

For `CC(=O)Nc1ccc(S(=O)(=O)N2CCN(C(=O)COc3ccc(Br)cc3)CC2)cc1` [CBK264234], the “% of control remaining” value is listed as 100%.

Regarding `CCOC(=O)c1cccnc1-c1ccc(Cl)c(Cl)c1` [CBK149241], the “% of control remaining” value amounted to 128.12%.

In the case of `CC(C)(C)NC(=O)CN1C(=O)N2CCCN=C2c2ccccc21` [CBK284404], the “% of control remaining” value is 110.074%.

For `COc1ccc(CCNC(=S)N2CCN(c3ccccn3)CC2)cc1OC` [CBK266897], the “% of control remaining” value is recorded as 139.328%.

Consider `O=C1NC(c2cccnc2)Nc2sc3c(c21)CCCC3` (centres unmarked) [CBK072377], for which the “% of control remaining” value is recorded as 127.511%.

Consider `COC(=O)N1CCN(c2ccccc2)CC1` [CBK200414], for which the “% of control remaining” value came out at 104.01%.

As to `CN(C(=O)CN1C2CCC1CC(O)(c1ccco1)C2)C1CCCCC1` (centres unmarked) [CBK284108], the “% of control remaining” value was 122.866%.

For `O=[N+]([O-])c1ccccc1OCCCn1cnc2ccccc21` [CBK267820G], the “% of control remaining” value came to 116.625%.

For `O=C(O)CC(NCc1ccco1)C(=O)Nc1cccc(F)c1` (centres unmarked) [CBK286910], the “% of control remaining” value came out at 111.418%.

Consider `CC(C)(C)OC(=O)N1CCCC(C(=O)NC(C(N)=O)c2ccccc2)C1` (centres unmarked) [CBK305766], for which the “% of control remaining” value stood at 114.636%.

Take `CCOc1cc(C)c(Cl)cc1S(=O)(=O)NCc1ccccn1` [CBK268047]: the “% of control remaining” value worked out at 112.694%.

With `COc1ccc(CN2CCN(c3ccccc3F)CC2)cc1OCc1ccccc1` [CBK261900], the “% of control remaining” value was determined as 84.819%.

As to `O=C(O)c1cccc(NS(=O)(=O)CC(F)(F)F)c1` [CBK155712], the “% of control remaining” value was determined as 98.2686%.

With `FC(F)(F)c1cccc(OCc2nnn[nH]2)c1` [CBK269466], the “% of control remaining” value worked out at 113.965%.

Regarding `COc1cc(CNc2nc(-c3cccc4ccccc34)cn3ccnc23)cc(OC)c1OC` [CBK037397], the “% of control remaining” value is given as 144.07%.

`COc1ccc(NC(=O)c2cnc3sc(C)cn3c2=O)c(OC)c1` [CBK287712]: the “% of control remaining” value is on record as 130.887%.

On to `CC12CN(Cc3ccccc3)CC1NC(=O)c1ccccc1C2N` (centres unmarked) [CBK282850], for which the “% of control remaining” value is on record as 100.811%.

`O=C(CCc1cccnc1)NC(Cc1ccsc1)c1nccs1` (centres unmarked) [CBK284665]: the “% of control remaining” value is on record as 161.65%.

As to `COc1cc(CN2CCC(C(=O)NC(c3ccc(Cl)cc3)c3ccsc3)CC2)cc(OC)c1` (centres unmarked) [CBK147962], the “% of control remaining” value was found to be 104.323%.

With `CC1CCc2c(C(=O)N3CCC4(C3)NC(=O)NC4=O)csc2C1` (centres unmarked) [CBK304290], the “% of control remaining” value stood at 136.896%.

For `CN(C(=O)c1cc(-c2cccs2)[nH]n1)c1ccccc1` [CBK288115], the “% of control remaining” value is reported as 133.295%.

Regarding `O=C(Nc1nc2c(s1)CCCCC2)C1CN(C(=O)Cc2ccc(F)cc2)C1` [CBK285904], the “% of control remaining” value is recorded as 133.457%.

Turning to `O=C(c1ccccc1)N1C[C@H](c2ccc(F)cc2)[C@H]2CN(CCc3ccccc3)CC[C@H]21` [CBK286291], the “% of control remaining” value was 146.181%.

For `O=C1Nc2ccc(-c3ccccc3F)cc2C(=O)N2CCN(C(=O)c3cccnc3)C[C@H]12` [CBK289591], the “% of control remaining” value is listed as 85.9122%.

For `Cc1cc(C)n(CCN2CCC(N(C)Cc3nnc(C)n3C)C2)n1` (centres unmarked) [CBK304449], the “% of control remaining” value turned out to be 178.809%.

Take `CC(C)CNc1nccnc1-c1ccc(Cl)cc1` [CBK088738]: the “% of control remaining” value turned out to be 113.236%.

As for `Cc1csc(C(Cc2ccsc2)NC(=O)CC2CCCO2)n1` (centres unmarked) [CBK282227], the “% of control remaining” value is 135.969%.

In the case of `CCN1CCN(c2ncnc3sc(C)c(C)c23)CC1` [CBK288101], the “% of control remaining” value is recorded as 148.668%.

Take `O=C(Cn1cc(C(=O)NC2CCCCC2)ccc1=O)NCC1(c2ccccc2Cl)CC1` [CBK286101]: the “% of control remaining” value came out at 133.076%.

As to `COc1ccc(-c2cnc(N)c(-c3ccc(C=O)cc3)n2)cn1` [CBK064096], the “% of control remaining” value is 171.616%.

Consider `COCC1CCCN1C(=O)c1cnn2c(C)c(Cc3cccc(C#N)c3)c(C)nc12` (centres unmarked) [CBK162099], for which the “% of control remaining” value turned out to be 118.155%.

As to `CC(=O)NCCn1cc2c(n1)[C@H]1CN(C(=O)CC(C)(C)C)C[C@H]1CC2` [CBK284592], the “% of control remaining” value amounted to 121.41%.

Turning to `COc1ccc(CN2CCCN(C(=O)c3cccc(C#N)c3)CC2)cc1` [CBK305281], the “% of control remaining” value was 122.167%.

Turning to `CCOc1n[s+]([O-])nc1Nc1cc(Cl)cc(Cl)c1` (centres unmarked) [CBK007897], the “% of control remaining” value amounted to 101.741%.

`Cc1cccc(C2(O)CCN(C(=O)CCCc3ccncc3)CC2)c1` [CBK282506]: the “% of control remaining” value is on record as 96.1635%.

For `CC(C)(C)S(=O)(=O)Cc1noc(-c2ccc(Cl)nc2)n1` [CBK089825], the “% of control remaining” value amounted to 99.7839%.

On to `O=C(O)c1ccc(-c2ccc(N3CCN(C(=O)c4ccco4)CC3)nc2)cc1` [CBK037700], for which the “% of control remaining” value was 113.565%.

As to `COc1ccc2c(c1)CC(C(=O)N1CCc3sccc3C1c1cccs1)CO2` (centres unmarked) [CBK285628], the “% of control remaining” value was 55.0261%.

As to `O=C1CN(c2nc(-c3ccncc3)nc3ccccc23)CCN1` [CBK305805], the “% of control remaining” value was found to be 200.742%.

`CCOc1cc(OCC)cc(C(=O)N2CCC3(CC2)CC(=O)c2cc(OCCN(C)C)ccc2O3)c1` [CBK169003T]: the “% of control remaining” value stood at 129.929%.

Take `CNC(=O)CN(C)Cc1c(C(=O)N2CCOCC2)nc2c(C)cccn12` [CBK307128]: the “% of control remaining” value worked out at 114.342%.

Take `Cc1cccc(-c2noc([C@@H]3C[C@@H](O)CN3Cc3ccccn3)n2)c1` [CBK288837]: the “% of control remaining” value was determined as 134.913%.

As for `Cc1ccc(S(=O)(=O)NC2c3cccc4cccc(c34)C2Sc2ccccn2)cc1` (centres unmarked) [CBK265840], the “% of control remaining” value was determined as 91.2585%.

As to `Cc1ccc(S(=O)(=O)N2CCC(C(=O)O)CC2)cc1C(=O)O` [CBK266636], the “% of control remaining” value was 133.687%.

On to `CC(NC(=O)CSCc1ccco1)c1ccccc1` (centres unmarked) [CBK283237], for which the “% of control remaining” value was 116.928%.

On to `O=C(Nc1ccccc1Cl)Nc1[nH]nc(O)c1Cc1c(Cl)cccc1Cl` [CBK089367], for which the “% of control remaining” value is reported as 86.69%.

As to `CC(C)[C@H](CO)n1c(=O)[nH]c2ncc(-c3ccc(OC(F)(F)F)cc3)nc21` [CBK065037], the “% of control remaining” value is recorded as 106.935%.

On to `c1ccc2cc(CCN3CCC(Oc4cncc(OCCN5CCOCC5)n4)C3)ccc2c1` (centres unmarked) [CBK084503], for which the “% of control remaining” value was determined as 138.944%.

Consider `O=C(c1c(F)cccc1Cl)N1CCN(Cc2ccc3c(c2)OCO3)CC1` [CBK074724], for which the “% of control remaining” value came to 113.246%.

`CC(C)/C=N/N=C1\NC(=O)CS1` [CBK023706]: the “% of control remaining” value was determined as 90.6124%.

In the case of `OCC(O)CN1CCCC1` (centres unmarked) [CBK015457], the “% of control remaining” value amounted to 128.117%.

Take `Cc1nc(C)n(CCc2nc3ccccc3[nH]2)n1` [CBK269364]: the “% of control remaining” value was found to be 119.338%.

In the case of `Cc1nonc1CN(C)C(=O)C1CC2C=CC1C21CC1` (centres unmarked) [CBK282076], the “% of control remaining” value was 114.723%.

On to `O=C(Nc1cccc2[nH]ccc12)c1ccc(Cl)cc1` [CBK159632], for which the “% of control remaining” value was 97.7876%.

As for `O=C(c1ccc2[nH]c(=O)[nH]c2c1)N1CCCC2(CCN(C(=O)c3cc(F)c(F)cc3F)C2)C1` (centres unmarked) [CBK131566], the “% of control remaining” value amounted to 104.084%.

On to `CCc1nccn1CCC(=O)NC1CCN(c2ccc(F)cc2)CC1` [CBK306760], for which the “% of control remaining” value turned out to be 121.855%.

Consider `CC(C)C(=O)Nc1nnc(-c2ccc(Cl)cc2)o1` [CBK287593], for which the “% of control remaining” value came out at 102.037%.

Regarding `Cn1cc(NC(=O)C2CCCN(c3ncccn3)C2)cn1` (centres unmarked) [CBK304394], the “% of control remaining” value worked out at 118.447%.

Regarding `Cn1cc(CNS(=O)(=O)c2ccc(F)c(Br)c2)cn1` [CBK305174], the “% of control remaining” value stood at 125.028%.

Take `O=C(NCc1ccccc1)C1CCCN(c2ncnc3[nH]cnc23)C1` (centres unmarked) [CBK287916]: the “% of control remaining” value was 118.401%.

In the case of `O=C(Nc1ccccc1C(=O)O)c1cc(S(=O)(=O)Nc2ccc(F)cc2)ccc1Cl` [CBK263248], the “% of control remaining” value came out at 118.157%.

With `Cc1ccc2c(c1)C(=O)CC1(CCN(C(=O)Cc3c(C)[nH]c(=O)[nH]c3=O)CC1)O2` [CBK285688], the “% of control remaining” value turned out to be 145.743%.

Regarding `O=C1c2cc(-c3nc(-c4ccccc4)[nH]c3-c3ccccc3)ccc2-c2ccc([N+](=O)[O-])cc21` [CBK262613], the “% of control remaining” value is 100%.

With `CCc1ccc(CC)c(S(=O)(=O)NC(CC(=O)O)c2ccccc2)c1` (centres unmarked) [CBK266208], the “% of control remaining” value is given as 134.927%.

In the case of `CCOc1ccc2c(c1)CN(CCCc1nc(C)no1)CC2` [CBK305076], the “% of control remaining” value is recorded as 104.496%.

For the compound `NC(=O)c1ccc(-c2cncc(NCc3ccco3)n2)cc1` [CBK065383], the “% of control remaining” value is 107.649%.

Turning to `O=C(CSc1nc(=O)cc(O)[nH]1)c1ccccc1` [CBK026570], the “% of control remaining” value is 138.124%.

Regarding `CCCSc1cc(=O)oc2ccccc12` [CBK017493], the “% of control remaining” value amounted to 93.5109%.

In the case of `COc1cccc(C(=O)N2CC=C[C@H]2C(=O)NC2CC2)c1` [CBK284278], the “% of control remaining” value is recorded as 57.7312%.

As to `O=S(=O)(c1ccc(-c2ccc(S(=O)(=O)N3CCCCC3)cc2)cc1)N1CCCCC1` [CBK261257], the “% of control remaining” value is listed as 102.226%.

Regarding `COc1cccc(CC(=O)N2CCCC(c3cc4ncccc4[nH]3)C2)c1` (centres unmarked) [CBK283426], the “% of control remaining” value came to 140.159%.

Turning to `NC(=O)c1ccc(NC(=O)COc2ccc3ccccc3c2)cc1` [CBK263738], the “% of control remaining” value worked out at 124.083%.
